Assay results taken from the supplement of paper PMC12823440, “Inhibitors supercharge kinase turnover through native proteolytic circuits” (Nature, 2025).
The list shows a part of the results. Hit calls seldom repeat between salt and free forms of one compound.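 Kinases were expressed as nanoluciferase fusions in K562 cells and luminescence was read every 4 h between 2 and 18 h as percent of control, DMSO set to 100% and a positive control to 0%. A time point counts as decreased when the signal drops significantly (2 sigma). The hit call is the authors' own, does not follow from the count of time points alone, and its rule is not shown.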

Sequences of proteins named here, by UniProt entry; tags and fusion partners are left off.
UniProt P22607, whole entry, looked up: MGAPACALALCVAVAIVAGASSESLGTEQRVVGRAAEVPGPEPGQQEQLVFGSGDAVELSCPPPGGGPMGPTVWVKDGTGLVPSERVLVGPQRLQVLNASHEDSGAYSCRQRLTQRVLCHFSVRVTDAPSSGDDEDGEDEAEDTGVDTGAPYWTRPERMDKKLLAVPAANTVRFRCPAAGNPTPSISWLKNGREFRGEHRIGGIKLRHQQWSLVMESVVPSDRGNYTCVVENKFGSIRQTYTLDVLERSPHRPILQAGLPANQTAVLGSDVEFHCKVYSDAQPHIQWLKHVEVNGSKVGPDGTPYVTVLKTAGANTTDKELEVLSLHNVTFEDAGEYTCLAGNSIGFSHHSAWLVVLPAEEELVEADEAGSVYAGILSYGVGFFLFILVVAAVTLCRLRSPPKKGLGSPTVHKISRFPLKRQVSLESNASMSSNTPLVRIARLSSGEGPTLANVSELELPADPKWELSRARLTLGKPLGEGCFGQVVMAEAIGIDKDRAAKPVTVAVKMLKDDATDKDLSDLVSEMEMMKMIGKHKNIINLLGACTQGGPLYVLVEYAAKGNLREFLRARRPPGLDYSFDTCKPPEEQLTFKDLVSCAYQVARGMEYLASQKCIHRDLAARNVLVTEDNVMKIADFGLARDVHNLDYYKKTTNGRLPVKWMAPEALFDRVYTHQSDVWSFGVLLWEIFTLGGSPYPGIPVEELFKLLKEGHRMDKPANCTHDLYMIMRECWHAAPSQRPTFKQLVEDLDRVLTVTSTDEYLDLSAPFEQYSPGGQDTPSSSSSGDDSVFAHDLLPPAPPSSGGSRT

Target: FGFR3 (UniProt P22607)
Test: kinase-Nluc reporter destabilization hit call (1 = scored as downregulated) (binary); higher = compound decreases kinase abundance
Conditions: K562; 2-18 h

Row | SMILES | kinase-Nluc reporter destabilization hit call
1 | O=c1[nH]c2ccccc2n1C1CCN(Cc2ccc(-c3[nH]c4cc5ncnc5cc4nc3-c3ccccc3)cc2)CC1 [AKT inhibitor VIII] (2.5 µM) | inactive: 0
2 | C[C@H]1CC[C@]2(NC1)O[C@H]1C[C@H]3[C@@H]4CC[C@H]5C[C@@H](O[C@@H]6O[C@H](CO)[C@H](O[C@@H]7O[C@H](CO)[C@@H](O)[C@H](O[C@@H]8OC[C@@H](O)[C@H](O)[C@H]8O)[C@H]7O[C@@H]7O[C@H](CO)[C@@H](O)[C@H](O)[C@H]7O)[C@H](O)[C@H]6O)CC[C@]5(C)[C@H]4CC[C@]3(C)[C@H]1[C@@H]2C [Tomatine] (2.5 µM) | inactive: 0
3 | C=C[C@H]1CN2CC[C@]3(C(=O)Nc4ccccc43)[C@@H]2C[C@@H]1/C(=C\OC)C(=O)OC [Corynoxeine] (2 µM) | inactive: 0
4 | C=CC(=O)Nc1ccc2[nH]c(=O)n(C3CCN(Cc4ccc(-c5nc6cc[nH]c(=O)c6cc5-c5ccccc5)cc4)CC3)c2c1 [Borussertib] (10 µM) | inactive: 0
5 | CCOC(=O)c1c(/C(C#N)=C\N)c2ccc(Cl)c(Cl)c2n1C (10 µM) | inactive: 0
6 | CC(=O)OC(C)(C)/C=C/C(=O)[C@](C)(O)[C@H]1[C@H](O)C[C@@]2(C)[C@@H]3CC=C4[C@@H](C=C(O)C(=O)C4(C)C)[C@]3(C)C(=O)C[C@]12C [Cucurbitacin E] (2.5 µM) | inactive: 0
7 | Cc1[nH]ncc1-c1cc2nc([C@H]3CC4CCN3CC4)[nH]c(=O)c2s1 [(R)-Simurosertib] (10 µM) | inactive: 0
